Reference: PubChem BioAssay AID1224828 (NIAID, 2016)

Aim: 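Knock-downs that increase or decrease LPS-induced p65 nuclear translocation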 (primary screen)
Cell system: mouse RAW264.7 G9 macrophage reporter cells (GFP-p65, Tnf promoter-mCherry)
Knock-down reagent: siRNA pool against mouse genes, 100 nM
Time to read-out: 2 days siRNA transfection, then 40 min LPS before fixation
Treatment: LPS (Salmonella minnesota R595) at 10 ng/ml
Read-out: 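Imaged p65 nuclear translocation ratio, normalised to the plate median, converted to robust z-scores and averaged across two replicates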
Scale: p65 translocation robust z-score: higher = more nuclear NF-kappaB p65 after LPS than the plate median; nuclear/cytoplasmic p65 ratio: higher = more nuclear NF-kappaB p65
Hit rule: 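Called active when z exceeds 3.3 or falls under -1.56 (median of Tlr4 controls), giving activity score of at least 50; no calls for control wells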
Meaning of the calls: active = hit (p65 shift raised or lowered); inactive = no clear change
The deposit covers about 17,000 reagents; this is a part drawn at random. 762 of all reagents (4.5%) were called active. 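Active calls include both raised and lowered p65 entry, mostly lowered; wells with fewer than 50 cells lack a z-score.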 The raw values are shown without normalisation. The numbers tell different reagents against one gene apart.

How did the screen score Mapt (microtubule-associated protein tau)?
p65 translocation robust z-score: 0.79; nuclear/cytoplasmic p65 ratio, rep 1: 1.6; nuclear/cytoplasmic p65 ratio, rep 2: 1.39; low cell count flag: enough cells to score; Call: inactive

Which result is listed for Minpp1 (multiple inositol polyphosphate histidine phosphatase 1)?
p65 translocation robust z-score: 0.27; nuclear/cytoplasmic p65 ratio, rep 1: 1.42; nuclear/cytoplasmic p65 ratio, rep 2: 1.43; low cell count flag: enough cells to score; Call: inactive

What is on record for Ankrd46 (ankyrin repeat domain 46)?
p65 translocation robust z-score: -0.23; nuclear/cytoplasmic p65 ratio, rep 1: 1.53; nuclear/cytoplasmic p65 ratio, rep 2: 1.4; low cell count flag: enough cells to score; Call: inactive

Which result is listed for Cbs (cystathionine beta-synthase)?
p65 translocation robust z-score: 0.85; nuclear/cytoplasmic p65 ratio, rep 1: 1.47; nuclear/cytoplasmic p65 ratio, rep 2: 1.49; low cell count flag: enough cells to score; Call: inactive

With Prl2a1 (prolactin family 2, subfamily a, member 1), what does the deposit list?
p65 translocation robust z-score: -0.03; nuclear/cytoplasmic p65 ratio, rep 1: 1.37; nuclear/cytoplasmic p65 ratio, rep 2: 1.22; low cell count flag: enough cells to score; Call: inactive

How did the screen score Gtf2b (general transcription factor IIB)?
p65 translocation robust z-score: 1.45; nuclear/cytoplasmic p65 ratio, rep 1: 1.57; nuclear/cytoplasmic p65 ratio, rep 2: 1.61; low cell count flag: enough cells to score; Call: inactive

What did the screen give for Or1e21 (olfactory receptor family 1 subfamily E member 21)?
nuclear/cytoplasmic p65 ratio, rep 1: 1.18; nuclear/cytoplasmic p65 ratio, rep 2: 1.17; low cell count flag: fewer than 50 cells per well; well left out of scoring; Call: inactive

For Mrpl47 (mitochondrial ribosomal protein L47), what does the deposit list?
nuclear/cytoplasmic p65 ratio, rep 1: 1.21; nuclear/cytoplasmic p65 ratio, rep 2: 1.2; low cell count flag: fewer than 50 cells per well; well left out of scoring; Call: inactive

What did the screen give for Cd47 #1?
p65 translocation robust z-score: -0.99; nuclear/cytoplasmic p65 ratio, rep 1: 1.18; nuclear/cytoplasmic p65 ratio, rep 2: 1.25; low cell count flag: enough cells to score; Call: inactive

For Cd47 #2, what does the deposit list?
p65 translocation robust z-score: -1.16; nuclear/cytoplasmic p65 ratio, rep 1: 1.28; nuclear/cytoplasmic p65 ratio, rep 2: 1.38; low cell count flag: enough cells to score; Call: inactive

For Gadd45gip1, what does the deposit list?
p65 translocation robust z-score: -0.37; nuclear/cytoplasmic p65 ratio, rep 1: 1.34; nuclear/cytoplasmic p65 ratio, rep 2: 1.36; low cell count flag: enough cells to score; Call: inactive

For Fbln1 (fibulin 1), what was measured?
p65 translocation robust z-score: 1.32; nuclear/cytoplasmic p65 ratio, rep 1: 1.75; nuclear/cytoplasmic p65 ratio, rep 2: 1.44; low cell count flag: enough cells to score; Call: inactive

For Fut9 (fucosyltransferase 9), how do the results read?
p65 translocation robust z-score: 0.41; nuclear/cytoplasmic p65 ratio, rep 1: 1.64; nuclear/cytoplasmic p65 ratio, rep 2: 1.53; low cell count flag: enough cells to score; Call: inactive

How did the screen score Ift27 (intraflagellar transport 27)?
p65 translocation robust z-score: 0.96; nuclear/cytoplasmic p65 ratio, rep 1: 1.64; nuclear/cytoplasmic p65 ratio, rep 2: 1.66; low cell count flag: enough cells to score; Call: inactive

A few values from the list.
Mrpl47 (mitochondrial ribosomal protein L47), nuclear/cytoplasmic p65 ratio, rep 1 = 1.21
Under “Call”, Cd47 #2 shows inactive
Fut9 (fucosyltransferase 9), low cell count flag = enough cells to score

The listing continues:
What did the screen give for Sprr2a1 (small proline-rich protein 2A1)?
p65 translocation robust z-score: -1.41; nuclear/cytoplasmic p65 ratio, rep 1: 1.26; nuclear/cytoplasmic p65 ratio, rep 2: 1.05; low cell count flag: enough cells to score; Call: inactive

With Ahnak (AHNAK nucleoprotein), how do the results read?
nuclear/cytoplasmic p65 ratio, rep 1: 1.25; nuclear/cytoplasmic p65 ratio, rep 2: 1.3; low cell count flag: fewer than 50 cells per well; well left out of scoring; Call: inactive

With Aurka (aurora kinase A), what was measured?
p65 translocation robust z-score: -0.63; nuclear/cytoplasmic p65 ratio, rep 1: 1.79; nuclear/cytoplasmic p65 ratio, rep 2: 1.3; low cell count flag: enough cells to score; Call: inactive

With Wipf2 (WAS/WASL interacting protein family, member 2), how do the results read?
p65 translocation robust z-score: -1.9; nuclear/cytoplasmic p65 ratio, rep 1: 1.14; nuclear/cytoplasmic p65 ratio, rep 2: 1.32; low cell count flag: enough cells to score; Call: active

For Mrpl1 (mitochondrial ribosomal protein L1), what was measured?
p65 translocation robust z-score: -0.63; nuclear/cytoplasmic p65 ratio, rep 1: 1.32; nuclear/cytoplasmic p65 ratio, rep 2: 1.3; low cell count flag: enough cells to score; Call: inactive

With Pcdha12 (protocadherin alpha 12), what does the deposit list?
p65 translocation robust z-score: 0.32; nuclear/cytoplasmic p65 ratio, rep 1: 1.56; nuclear/cytoplasmic p65 ratio, rep 2: 1.21; low cell count flag: enough cells to score; Call: inactive

What is on record for Serpinb9d (serine (or cysteine) peptidase inhibitor, clade B, member 9d)?
nuclear/cytoplasmic p65 ratio, rep 1: 1.36; nuclear/cytoplasmic p65 ratio, rep 2: 1.29; low cell count flag: fewer than 50 cells per well; well left out of scoring; Call: inactive
